Experimental data reported in US20120065254.
The exact form of at least one protein or probe is not confirmed. For part of these data: A weaker result is weaker than the reference pair of the same experiment. For part of these data: Protein sequences can lack the tags named with them.

Chains of the proteins cited; added tags and fusions are not shown. Chains listed by the source or under a name are the forms on record and can include a tag or linker.
human complement C5 (Homo sapiens), one chain, as listed by the source: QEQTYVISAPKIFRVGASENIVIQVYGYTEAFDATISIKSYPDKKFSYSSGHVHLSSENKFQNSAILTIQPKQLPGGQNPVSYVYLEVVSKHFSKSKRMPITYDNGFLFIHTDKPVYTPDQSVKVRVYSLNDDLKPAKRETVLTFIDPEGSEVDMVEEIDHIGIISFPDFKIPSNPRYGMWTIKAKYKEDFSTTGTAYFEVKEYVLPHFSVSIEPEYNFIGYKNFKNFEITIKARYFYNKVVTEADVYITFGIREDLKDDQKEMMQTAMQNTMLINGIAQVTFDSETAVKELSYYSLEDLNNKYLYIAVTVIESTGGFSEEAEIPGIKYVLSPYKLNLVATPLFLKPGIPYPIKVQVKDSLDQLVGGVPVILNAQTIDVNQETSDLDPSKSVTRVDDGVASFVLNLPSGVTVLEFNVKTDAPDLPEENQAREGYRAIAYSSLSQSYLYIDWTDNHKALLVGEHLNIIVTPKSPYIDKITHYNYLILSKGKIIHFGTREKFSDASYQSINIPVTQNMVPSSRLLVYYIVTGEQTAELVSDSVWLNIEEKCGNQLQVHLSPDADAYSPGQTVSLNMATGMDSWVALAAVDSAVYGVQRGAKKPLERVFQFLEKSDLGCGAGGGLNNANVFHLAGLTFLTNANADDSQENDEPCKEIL

What was measured:
[1] = biological target: T1, human C5a (L-form) (Homo sapiens) (UniProt P01031); assay: SPR; settings: purified recombinant protein, mirror-image nucleic acid
T1 sequence: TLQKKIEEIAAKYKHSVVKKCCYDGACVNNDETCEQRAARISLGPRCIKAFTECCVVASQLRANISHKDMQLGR

[2] = tested on: human complement C5 (Homo sapiens); assay: SPR; settings: L-RNA [all (L-RNA)]; improved C5 binding over 179-A3-014; purified native protein; protein details: from human plasma, Sigma C3160; mirror-image nucleic acid; letters built from the parent sequence and the stated change; variant of 179-A3-014 Spiegelmer
[3] = tested on: T2, His6-macC5a (macaque C5a) (Macaca mulatta); assay: activity in cells; settings: L-RNA, purified recombinant protein, protein details: His6, E. coli BL21, mirror-image nucleic acid
T2 sequence: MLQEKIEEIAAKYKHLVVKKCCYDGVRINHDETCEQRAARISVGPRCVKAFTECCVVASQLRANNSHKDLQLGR

[4] = biological target: T1, human C5a (L-form) (Homo sapiens); assay: activity in cells; settings: L-RNA; inhibits chemotaxis of U937 cells to 0.1 nM C5a; purified recombinant protein; protein details: Sigma C5788; synthetic backbone; mirror-image nucleic acid
[5] = L-RNA [all (L-RNA)], derivatives slightly declined vs 182-E5, protein details: recombinant, Sigma C5788 for SPR and in vivo, letters built from the parent sequence and the stated change, variant of 182-E5 Spiegelmer
[6] = L-RNA [all (L-RNA)], range given for all 182-D5 derivatives, protein details: recombinant, Sigma C5788 for SPR and in vivo, letters built from the parent sequence and the stated change, variant of 182-D5 Spiegelmer
[7] = L-RNA [all (L-RNA)], slightly declined vs 185-H3-014, protein details: recombinant, Sigma C5788 for SPR and in vivo, letters built from the parent sequence and the stated change, variant of 185-H3-001 Spiegelmer
[8] = L-RNA [all (L-RNA)], range for 182-E6-002 and -003, protein details: recombinant, Sigma C5788 for SPR and in vivo, letters built from the parent sequence and the stated change, variant of 182-E6 Spiegelmer
[9] = 10 nM blocked chemotaxis by 1 and 3 nM macaque C5a
[10] = L-RNA, 37 C, Mg, Ca, protein details: recombinant, Sigma C5788 for SPR and in vivo

ACUGCGUUCGGACGUGGCAUGUUCCUUGACAAACGGUUGGCAGU [182-E5-010]
binding result [1, 5]: binds more weakly

CUGCAAGACGCCGAAUAGGACCGAAGUGUAGAAUCGUGCAG [182-D5-004]
binding result [1, 6]: binds

GCCGGGUGUUUACUUGCUUAAUAGGGGCCGGC [185-H3-018]
binding result [1, 7]: binds more weakly

GCGGCGUUCGGACGUGGCAUGUUCCUUGACAAACGGUUGGCCGC [182-E5-007]
binding result [1, 5]: binds more weakly

GCUGCAAGACGCCGAAUAGGACCGAAGUGUAGAAUCGUGCAGC [182-D5-003]
binding result [1, 6]: binds

GCUGCGUUCGGACGUGGCAUGUUCCUUGACAAACGGUUGGCAGC [182-E5-013]
binding result [1, 5]: binds more weakly

GCUGGGUUCGGACGUGGCAUGUUCCUUGAUAAACGGUUGCCAGC [182-E5-014]
binding result [1, 5]: binds more weakly

GCUGUCAGACGCCGAACAGGUCGCAUUGCGAAGAAUCGGGCAGC [182-E6-003]
binding result [1, 8]: binds

GGCCGAAGACGCCGCGUAGGACCCAAUGGGUAGAAUCGGCGGCC [179-A3-050]
binding result [2]: binds
binding result ([1]; L-RNA [all (L-RNA)], 37 C, Mg, Ca, protein details: recombinant, Sigma C5788 for SPR and in vivo, letters built from the parent sequence and the stated change, variant of 179-A3-014 Spiegelmer): binds

GGCUGAACACGCCGCGUAGGACCAAUGGUAGAAUGGGCAGCC [179-A3-047]
binding result ([1]; L-RNA [all L-RNA], 37 C, called C5a binding nucleic acid, protein details: Sigma C5788, synthetic backbone, letters built from the parent sequence and the stated change): binds

GGCUGAACACGCCGCGUAGGACCCAAUGGGUAGAAUGGGCAGCC [179-A3-014 Spiegelmer]
binding result ([1]; L-RNA, 37 C, 1 mM MgCl2, 1 mM CaCl2, protein details: recombinant, Sigma C5788 for SPR and in vivo, variant of 179-A3 Spiegelmer): binds

GGGGCGUGUUUACUUGCUUAAUAGGGAGCCCC [185-H3-019]
binding result [1, 7]: binds more weakly

GUACUGCGUUCGGACGUGGCAUGUUCCUUGACAAACGGUUGGCAGU [182-E5-015]
binding result [1, 5]: binds more weakly

GUACUGCGUUCGGACGUGGCAUGUUCCUUGACAAACGGUUGGCAGUAC [182-E5 Spiegelmer]
functional effect of the aptamer ([3]; only weak inhibition, dose not given here): less active
binding result ([1]; L-RNA, protein details: recombinant, Sigma C5788 for SPR and in vivo): binds

GUGCUGCAAGACGCCGAAUAGGACCGAAGUGUAGAAUCGUGCAGCAC [182-D5 Spiegelmer]
functional effect of the aptamer [3, 9]: active
functional effect of the aptamer [4]: active
binding result [1, 10]: binds

GUGCUGGACAGGACCAAGGUAAGGGCGGACCGAAAAACCUAGCAGCAC [182-A5 Spiegelmer]
functional effect of the aptamer [3, 9]: active
functional effect of the aptamer [4]: active
binding result [1, 10]: binds

GUGCUGGGUUCGGACGUGGCAUGUUCCUUGAUAAACGGUUGCCAGCAC [182-E5-016]
binding result [1, 5]: binds more weakly

GUGCUGUCAGACGCCGAACAGGUCGCAUUGCGAAGAAUCGGGCAGCAC [182-E6 Spiegelmer]
functional effect of the aptamer [3, 9]: active
functional effect of the aptamer [4]: active
binding result [1, 10]: binds

UACUGCGUUCGGACGUGGCAUGUUCCUUGACAAACGGUUGGCAGUA [182-E5-009]
binding result [1, 5]: binds more weakly

UACUGCGUUCGGACGUGGCAUGUUCCUUGACAAACGGUUGGCAGUAC [182-E5-011]
binding result [1, 5]: binds more weakly

UGCUGCAAGACGCCGAAUAGGACCGAAGUGUAGAAUCGUGCAGCA [182-D5-002]
binding result [1, 6]: binds

UGCUGUCAGACGCCGAACAGGUCGCAUUGCGAAGAAUCGGGCAGCA [182-E6-002]
binding result [1, 8]: binds
